Experimental data reported in PubChem BioAssay AID743266 (National Center for Advancing Translational Sciences (NCATS), 2014).
The campaign covered roughly 410,000 compounds. About 310 (0.076%) were called active. The shares of active, inactive and inconclusive entries below differ from those in the screen. The call rests on the fitted dose curve; in most records, active means well fitted activation curve with a large enough effect; inconclusive means small, poorly fitted or top-dose-only effect, or another doubt; inactive means no such curve, though single readings can be large or run the other way. Potencies beside an inconclusive call are fits to weak or partial responses and may not hold up.

Chains of the proteins cited; added tags and fusions are not shown.
UniProt Q03431, whole entry, looked up: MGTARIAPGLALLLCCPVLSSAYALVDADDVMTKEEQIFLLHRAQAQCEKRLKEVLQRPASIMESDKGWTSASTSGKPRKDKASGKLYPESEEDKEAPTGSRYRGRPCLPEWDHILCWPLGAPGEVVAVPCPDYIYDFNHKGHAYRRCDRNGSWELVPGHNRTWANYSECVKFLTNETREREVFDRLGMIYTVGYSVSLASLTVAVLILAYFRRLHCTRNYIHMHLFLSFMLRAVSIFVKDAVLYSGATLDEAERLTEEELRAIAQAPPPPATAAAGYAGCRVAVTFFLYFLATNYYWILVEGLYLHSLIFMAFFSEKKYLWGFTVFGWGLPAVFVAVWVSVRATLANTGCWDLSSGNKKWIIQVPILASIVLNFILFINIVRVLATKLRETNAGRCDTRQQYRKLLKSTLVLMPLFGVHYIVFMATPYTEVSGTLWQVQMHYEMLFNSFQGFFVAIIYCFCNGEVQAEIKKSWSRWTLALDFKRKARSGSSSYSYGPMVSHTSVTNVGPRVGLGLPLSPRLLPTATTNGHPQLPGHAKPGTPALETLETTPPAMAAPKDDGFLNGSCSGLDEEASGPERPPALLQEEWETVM

target: Parathyroid hormone/parathyroid hormone-related peptide receptor (Homo sapiens) (UniProt Q03431); test: qHTS for PTHR1 Agonists: Primary Screen; conditions: HEK293 GP2 PTHR1 cells, GloSensor cAMP luminescence, 1 h; activation: at 115 µM (top of the series) unless noted; series mostly up to 115 µM; further: nearly all actives have a fitted effect of over 55% in size
Summary of the method: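 HEK-293-derived GP2 cells expressing PTHR1 and a GloSensor cAMP reporter, 3,000/well, plated overnight, given luciferin plus IBMX (each 0.5 mM as added) for 1 h at 37 °C, then compound for 1 h at 37 °C. Luminescence was read after 15 min at room temperature.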
Potency means the concentration at half of the fitted maximal effect.

Structure (SMILES)	Potency	activation
Nc1ncn(-c2ncc(C(F)(F)F)cc2Cl)n1	inconclusive: 15.8 µM [activator, partial curve, poor fit]	
Cc1ccc(NC(=O)C2Cc3ccccc3C(=O)O2)cc1 (configuration not stated)	inactive	
FC(F)(F)c1nnc2sc(-c3ccncc3)nn12	inconclusive: 63.1 µM [activator, single point]	
Cc1c(NC(=O)CCC2CCCCC2)cc(C(=O)N2CCOCC2)cc1[N+](=O)[O-]	inconclusive: 35.5 µM [activator, partial curve, poor fit]	
O=C(Cc1ccccc1)Nc1cccc(NC(=O)c2cccs2)c1	inactive	
CCOc1ccccc1OCC(=O)NCCc1ccc(S(N)(=O)=O)cc1		inconclusive: -7.9% [activator]
O=c1c2cc(N3CCOCC3)ccc2[nH]c(=S)n1Cc1cccc(Cl)c1	inconclusive: 28.2 µM [activator, partial curve, poor fit]	
CCCCN1C(=O)C(O)(CC(=O)c2ccc(C)cc2C)c2cc(Br)ccc21 (configuration not stated)	inactive	
COc1ccccc1NC(=O)CSc1nnc2ccccn12	inconclusive: 50.1 µM [activator, single point]	
CC(=O)Nc1ccc(N(C(=O)Cn2nnc3ccccc32)C(C(=O)NCc2ccccc2)c2ccc(C)cc2)cc1 (configuration not stated)	inactive	
C=CCNCCOCCOc1ccc(Cl)cc1C(C)(C)C	inactive	
O=C(COc1ccc(F)cc1)Nc1ccc2c(c1)OCCO2		inconclusive: -50% [activator]
CCc1ccccc1N1CSC2=C(C#N)C(c3cc(OC)c(OC)cc3OC)CC(=O)N2C1 (configuration not stated)	active: 1.58 µM	
CCOC(=O)c1c(C)[nH]c(C)c1S(=O)(=O)N1CCC(C(=O)NCc2ccccc2Cl)CC1		inconclusive: 83.6% [activator]
COC(=O)c1ccccc1NC(=O)CCCn1c(=O)c2cccn2c2cccnc21	inconclusive: 22.4 µM [activator, full curve, poor fit]	
Cc1cc(=O)[nH]c(SCC(=O)Nc2c(C)n(C)n(-c3ccccc3)c2=O)c1C#N	inconclusive: 100 µM [activator, single point]	
CCCOc1ccc(/C=N/NC(=O)CN2CCCCC2)cc1OCC	inconclusive: 8.91 µM [activator, partial curve, poor fit]	
Cn1c(SCC(=O)NCc2cccs2)nnc1-c1cccs1	inactive	
O=c1nc2c(O)cccn2c2c1c(=O)[nH]c1ccccc12	inactive	
O=C(COc1ccccc1)OCc1cc(-c2ccco2)on1	inconclusive: 31.6 µM [activator, partial curve, poor fit]	
O=C(NC1CCCCCC1)c1cc(S(=O)(=O)N2CCOCC2)ccc1N1CCCCC1	inconclusive: 1.58 µM [activator, full curve, poor fit]	

Structure (SMILES)	Potency	activation
CCOc1ccc(CNC(=O)c2ccc3c(c2)nc2n3CCOC2)cc1OC	inconclusive: 126 µM [activator, single point]	
C=CCn1c(SCC(=O)Nc2ccc(NC(C)=O)cc2)nc2sc(C)c(C)c2c1=O	inconclusive: 14.1 µM [activator, partial curve, poor fit]	
CN(C)CCCN1c2ccc3ccccc3c2Sc2cccc(Cl)c21	inconclusive: 141 µM [activator, single point]	
COc1cccc(NC(=O)CC2Nc3cc(C)c(C)cc3NC2=O)c1 (configuration not stated)		inconclusive: -16.6% [activator]
CN(C)/C=N/n1cnc2ccccc2c1=O	inconclusive: 112 µM [activator, single point]	
Cc1ccc(C2(C)NC(=O)N(CC(=O)c3ccc4c(c3)OCCO4)C2=O)cc1 (configuration not stated)	inconclusive: 7.94 µM [activator, full curve, poor fit]	
Cc1ccc(C)c(C(=O)NC2CC(C)(C)NC(C)(C)C2)c1	inconclusive: 5.01 µM [activator, partial curve, poor fit]	
CC(C)(C)NC(=O)C(c1ccc(OCC(N)=O)cc1)N(C(=O)c1cccnc1)C1CC1 (configuration not stated)	inconclusive: 39.8 µM [activator, single point]	
Cc1ccc(-c2ccc(=O)n(CC(=O)Nc3ccc(F)c(Cl)c3)n2)cc1C	inactive	
O=C(O)c1cc([N+](=O)[O-])ccc1C(=O)Nc1ccccc1	inconclusive: 70.8 µM [activator, single point]	
CC1(C)Cc2c(sc3nc4n(c(=N)c23)CCC4)CO1	inconclusive: 25.1 µM [activator, partial curve]	
O=C(NCc1ccccc1Cl)c1ccc(NC(=O)N2CCCCc3ccccc32)cc1	inconclusive: 44.7 µM [activator, partial curve, poor fit]	
CCOc1ccc(NC(=O)CSC2=Nc3ccccc3C3=NC(CC(=O)NCc4ccc5c(c4)OCO5)C(=O)N23)cc1 (configuration not stated)		inconclusive: -38.9% [activator]
COc1ccc([N+](=O)[O-])cc1/C=N/Nc1nn[nH]n1	inconclusive: 70.8 µM [activator, partial curve, poor fit]	
CCCN(C)C[C@@H]1OCCCC[C@@H](C)Oc2ccc(NC(=O)c3ccccc3)cc2C(=O)N([C@H](C)CO)C[C@@H]1C	inconclusive: 141 µM [activator, single point]	
CCOC(=O)C(N)CSC1CC(=O)N(CCc2ccccc2)C1=O (configuration not stated)	inconclusive: 39.8 µM [activator, single point]	
CCOC(=O)c1ccc(N2CCN(C(C)=O)CC2)c(NC(=O)c2cccnc2)c1	inconclusive: 50.1 µM [activator, single point]	
O=C(CC1C(=O)NCCN1Cc1cccc(F)c1)NC1CCC1 (configuration not stated)	inconclusive: 11.2 µM [activator, partial curve]	
CC(=O)c1cccc(N(CC(=O)NC2CCCC2)C(=O)c2ccc(C)s2)c1		inconclusive: 55.5% [activator]
O=c1oc2ccccc2c(Cl)c1CN1CCCCC1	inactive	
O=C1C(=Cc2cn(-c3ccccc3)nc2-c2ccc(OCc3ccccc3)cc2)SC(=S)N1CCS(=O)(=O)O	inconclusive: 141 µM [activator, single point]	

Taken from above.
O=C1C(=Cc2cn(-c3ccccc3)nc2-c2ccc(OCc3ccccc3)cc2)SC(=S)N1CCS(=O)(=O)O – Potency: inconclusive: 141 µM [activator, single point]
CCOC(=O)C(N)CSC1CC(=O)N(CCc2ccccc2)C1=O (configuration not stated) – Potency: inconclusive: 39.8 µM [activator, single point]
